Where a name gives a salt, the structure may show the parent alone. ± gives the standard deviation of the averaged measurements. This is one part of the list. Repeats are few or missing, and single values can be far off.

This experiment relates to RAW 264.7. The experiment is described as follows: HMGB1-induced TNF-alpha production relative to HMGB1-stimulated control; higher = more TNF-alpha secretion (less inhibition). To be noted: stimulus: HMGB1 5 ug/ml, 18 h.
The mark [1] stands for this setting: compound concentration: 1 ug/ml.

Turning to `O=C(O)C1=C(CSc2nnnn2CS(=O)(=O)O)CS[C@@H]2[C@H](NC(=O)[C@H](O)c3ccccc3)C(=O)N12`, the “HMGB1-induced TNF-alpha production” value (compound concentration: 3 uM) turned out to be 89.6%.

On to `CCOC(=O)[C@@H](C)Oc1cccc2c(=O)n(CC(=O)Nc3ccc4c(c3)OCCO4)ccc12`, for which the “HMGB1-induced TNF-alpha production” value (compound concentration: 3 uM) came to 114%.

For `CNCC(O)c1ccc(O)c(O)c1` (configuration not stated) [Racepinephrine HCl], the “HMGB1-induced TNF-alpha production” value (compound concentration: 3 uM) worked out at 68.1%.

In the case of `c1cc(CN2CCCCC2)cc(OCCCNc2nc3ccccc3s2)c1`, the “HMGB1-induced TNF-alpha production” value (compound concentration: 3 uM) turned out to be 90.9%.

`CCOC1O[C@H]([C@@H](COCc2ccccc2)OCc2ccccc2)[C@H](OCc2ccccc2)[C@H]1O` (some centres not stated) [Tribenoside]: the “HMGB1-induced TNF-alpha production” value (compound concentration: 3 uM) came to 77.7%.

As to `CC(=O)Nc1c(I)c(C(=O)N[C@H]2C(O)O[C@H](CO)[C@@H](O)[C@@H]2O)c(I)c(N(C)C(C)=O)c1I` (some centres not stated) [Metrizamide], the “HMGB1-induced TNF-alpha production” value (compound concentration: 3 uM) came out at 70.8%.

In the case of `NC[C@H](O)c1ccc(O)c(O)c1`, where the note is “compound concentration: 3 uM”, the “HMGB1-induced TNF-alpha production” value was 51.1%.

With `CCN(CC)CCNC(=O)c1ccc(N)cc1`, under “compound concentration: 3 uM”, the “HMGB1-induced TNF-alpha production” value turned out to be 79.3%.

As for `CCN(CC)CCNC(=O)c1ccc(N)cc1` [Procainamide], the “HMGB1-induced TNF-alpha production” value (compound concentration: 3 uM) stood at 105%.

Consider `CCN(CC)CCNC(=O)c1ccc(N)cc1` [Procainamide hydrochloride], for which, where the note is “compound concentration: 3 uM”, the “HMGB1-induced TNF-alpha production” value stood at 84.7 ± 28%.

In the case of `Cc1cc2c(C(C)C)c(O)c(O)c3c2c(c1-c1c(C)cc2c(C(C)C)c(O)c(O)c4c2c1OC4N)OC3N` (configuration not stated), the “HMGB1-induced TNF-alpha production” value under setting [1] turned out to be 78.3%.

With `c1ccc2c(c1)CC(N1CCN(c3cccc4c3OCCO4)CC1)C2`, where the note is “compound concentration: 3 uM”, the “HMGB1-induced TNF-alpha production” value is 101%.

Consider `CCCCCCOc1ccccc1C(N)=O`, for which the “HMGB1-induced TNF-alpha production” value (compound concentration: 3 uM) is 82.7%.

For `CC[C@H]1OC(=O)[C@H](C)[C@@H](O[C@H]2C[C@@](C)(OC)[C@@H](O)[C@H](C)O2)[C@H](C)[C@@H](O[C@@H]2O[C@H](C)C[C@H](N(C)C)[C@H]2O)[C@](C)(O)C[C@@H](C)CN(C)[C@H](C)[C@@H](O)[C@]1(C)O` [Azithromycin], under “compound concentration: 3 uM”, the “HMGB1-induced TNF-alpha production” value came out at 95.6 ± 17%.

`CC[C@H]1OC(=O)[C@H](C)[C@@H](O[C@H]2C[C@@](C)(OC)[C@@H](O)[C@H](C)O2)[C@H](C)[C@@H](O[C@@H]2O[C@H](C)C[C@H](N(C)C)[C@H]2O)[C@](C)(O)C[C@@H](C)CN(C)[C@H](C)[C@@H](O)[C@]1(C)O`: for the setting “compound concentration: 3 uM”, the “HMGB1-induced TNF-alpha production” value worked out at 81%.

With `C[C@@H]1CCC[C@H](C)N1NC(=O)c1ccc(Cl)c(S(N)(=O)=O)c1` [Clopamide], the “HMGB1-induced TNF-alpha production” value (compound concentration: 3 uM) amounted to 83 ± 18%.

Turning to `CCC(C)(C)N=C(NC#N)Nc1cccnc1`, the “HMGB1-induced TNF-alpha production” value (compound concentration: 3 uM) came out at 118%.

As for `CN[C@H]1CC[C@@H](c2ccc(Cl)c(Cl)c2)c2ccccc21` [Sertraline], the “HMGB1-induced TNF-alpha production” value (compound concentration: 3 uM) amounted to 99.7 ± 15%.

Turning to `CN[C@H]1CC[C@@H](c2ccc(Cl)c(Cl)c2)c2ccccc21` [Sertraline hydrochloride], the “HMGB1-induced TNF-alpha production” value (compound concentration: 3 uM) amounted to 92.3%.

Consider `CN[C@H]1CC[C@@H](c2ccc(Cl)c(Cl)c2)c2ccccc21`, for which the “HMGB1-induced TNF-alpha production” value (compound concentration: 3 uM) came to 95.6%.

`COc1cc2ccc(=O)oc2c(O)c1O` [Fraxetin]: under setting [1], the “HMGB1-induced TNF-alpha production” value was 66.6%.

`Cc1cc2c(C(C)C)c(O)c(O)c(/C=N/Nc3cccc(Cl)n3)c2c(O)c1-c1c(C)cc2c(C(C)C)c(O)c(O)c(/C=N/Nc3cccc(Cl)n3)c2c1O`: the “HMGB1-induced TNF-alpha production” value under setting [1] was determined as 67.8%.

`CC(CNC1CCCCC1)OC(=O)c1ccccc1` (configuration not stated) [Hexylcaine hydrochloride]: the “HMGB1-induced TNF-alpha production” value (compound concentration: 3 uM) is 66%.

Take `CC(C)[C@H]1CC[C@H](C)C[C@@H]1O` [(1S,2R,5S)-(+)-Menthol]: under setting [1], the “HMGB1-induced TNF-alpha production” value is 68.2%.

As to `Nc1ccc(S(=O)(=O)Nc2nccs2)cc1`, the “HMGB1-induced TNF-alpha production” value (compound concentration: 3 uM) was determined as 95.8%.

As to `Nc1ccc(S(=O)(=O)Nc2nccs2)cc1` [Sulfathiazole], the “HMGB1-induced TNF-alpha production” value (compound concentration: 3 uM) amounted to 73.2%.

For `Cc1ccc(-c2cc(C(F)(F)F)nn2-c2ccc(S(N)(=O)=O)cc2)cc1`, where the note is “compound concentration: 3 uM”, the “HMGB1-induced TNF-alpha production” value is 77.3%.

In the case of `Cc1ccc(-c2cc(C(F)(F)F)nn2-c2ccc(S(N)(=O)=O)cc2)cc1` [Celecoxib], the “HMGB1-induced TNF-alpha production” value (compound concentration: 3 uM) was 84.5 ± 9.1%.

With `O=C1c2ccccc2C(=O)c2c(O)c(O)cc(O)c21` [Purpurin], the “HMGB1-induced TNF-alpha production” value under setting [1] was determined as 67.8%.

Consider `COc1cc2cc(Oc3ccc4ccc(=O)oc4c3)c(=O)oc2cc1OC(C)=O` [Daphnoretine Acetate], for which, under setting [1], the “HMGB1-induced TNF-alpha production” value is 60.8%.

In the case of `CC(C)[N+]1(C)[C@@H]2CC[C@H]1C[C@@H](OC(=O)C(CO)c1ccccc1)C2` (some centres not stated), the “HMGB1-induced TNF-alpha production” value (compound concentration: 3 uM) is 98.6%.

As for `CC(C)[N+]1(C)[C@@H]2CC[C@H]1C[C@@H](OC(=O)C(CO)c1ccccc1)C2` (some centres not stated) [Ipratropium], the “HMGB1-induced TNF-alpha production” value (compound concentration: 3 uM) was determined as 98.5%.

Take `CC(C)[N+]1(C)[C@@H]2CC[C@H]1C[C@@H](OC(=O)C(CO)c1ccccc1)C2` (some centres not stated) [Ipratropium bromide]: the “HMGB1-induced TNF-alpha production” value (compound concentration: 3 uM) worked out at 83%.

As for `C[C@]12CC[C@@H]3c4ccc(O)cc4C[C@@H](CCCCCCCCC[S+]([O-])CCCC(F)(F)C(F)(F)F)[C@H]3[C@@H]1CC[C@@H]2O` (some centres not stated) [Fulvestrant], the “HMGB1-induced TNF-alpha production” value (compound concentration: 3 uM) is 81.6 ± 5.6%.

With `O=C(O)[C@@H]1[C@H]2C[C@H]3c4[nH]c5ccccc5c4CCN3C[C@@H]2CC[C@@H]1O` [Yohimbinic acid monohydrate], under setting [1], the “HMGB1-induced TNF-alpha production” value was 54.4%.

As for `COc1cc(CNC(=O)CCCC/C=C/C(C)C)ccc1O`, the “HMGB1-induced TNF-alpha production” value (compound concentration: 3 uM) was determined as 105%.

Consider `COc1cc(CNC(=O)CCCC/C=C/C(C)C)ccc1O` [Capsaicin], for which the “HMGB1-induced TNF-alpha production” value reads like this: under setting [1], 63.7%; (compound concentration: 3 uM) 102 ± 7.1%.

As for `CO/N=C(\C(=O)N[C@@H]1C(=O)N2C(C(=O)O)=C(COC(C)=O)CS[C@H]12)c1csc(N)n1` [Cefotaxime sodium salt], the “HMGB1-induced TNF-alpha production” value (compound concentration: 3 uM) worked out at 75.8%.

Consider `CO/N=C(\C(=O)N[C@@H]1C(=O)N2C(C(=O)O)=C(COC(C)=O)CS[C@H]12)c1csc(N)n1`, for which the “HMGB1-induced TNF-alpha production” value (compound concentration: 3 uM) stood at 86.7%.

Consider `CO/N=C(\C(=O)N[C@@H]1C(=O)N2C(C(=O)O)=C(COC(C)=O)CS[C@H]12)c1csc(N)n1` [Cefotaxime sodium], for which the “HMGB1-induced TNF-alpha production” value (compound concentration: 3 uM) was determined as 76.9%.

`CO/N=C(\C(=O)N[C@@H]1C(=O)N2C(C(=O)O)=C(COC(C)=O)CS[C@H]12)c1csc(N)n1` [Cefotaxime Acid]: the “HMGB1-induced TNF-alpha production” value (compound concentration: 3 uM) turned out to be 96.1%.

As to `O=C(/C=C/c1ccc(O)c(O)c1)O[C@H](Cc1ccc(O)c(O)c1)C(=O)O` [Rosmarinic acid], the “HMGB1-induced TNF-alpha production” value under setting [1] amounted to 62.4%.

In the case of `C1CCC(N=C(NC23CC4CC(CC(C4)C2)C3)N2CCOCC2)CC1`, the “HMGB1-induced TNF-alpha production” value (compound concentration: 3 uM) came out at 84.8%.

On to `COC(=O)[C@H](Cc1ccccc1)NC(=O)[C@@H](N)CC(=O)O`, for which, for the setting “compound concentration: 3 uM”, the “HMGB1-induced TNF-alpha production” value worked out at 86.6%.

`C[N+](C)(C)CC(O)CC(=O)[O-]` (configuration not stated): under “compound concentration: 3 uM”, the “HMGB1-induced TNF-alpha production” value was 83.1%.

As to `NC(N)=N[C@@H](CCC(=O)O)C(=O)O` [alpha-Guanidinoglutaric acid], the “HMGB1-induced TNF-alpha production” value (compound concentration: 3 uM) was determined as 80.1%.

Consider `NC(Cc1cnc[nH]1)C(=O)O` (racemic) [DL-Histidine hydrochloride, monohydrate], for which the “HMGB1-induced TNF-alpha production” value under setting [1] was 73.3%.

Regarding `CCCCOc1cc(C(=O)OCCN(CC)CC)ccc1N` [Benoxinate hydrochloride], for the setting “compound concentration: 3 uM”, the “HMGB1-induced TNF-alpha production” value turned out to be 77.4%.

As for `Clc1ccc2nsnc2c1NC1=NCCN1` [Tizanidine hydrochloride], the “HMGB1-induced TNF-alpha production” value (compound concentration: 3 uM) stood at 105%.

`Clc1ccc2nsnc2c1NC1=NCCN1` [Tizanidine HCl]: where the note is “compound concentration: 3 uM”, the “HMGB1-induced TNF-alpha production” value is 113%.

As to `Clc1ccc2nsnc2c1NC1=NCCN1` [Tizanidine], the “HMGB1-induced TNF-alpha production” value (compound concentration: 3 uM) came out at 96.1%.

These data come from the supplement of paper PMC3682954.
